From US10112906B2, “1-aryl-3-alkylpyrazole insecticides” (E. I. DU PONT DE NEMOURS AND COMPANY, priority 2013, dated 2018)
Some entries share one result that the patent states for a list of compounds.

What follows are molecules tested on potato leafhopper (Empoasca fabae (Harris)) (assay: Test D: control of potato leafhopper through contact and/or systemic means). Settings: sprayed at 50 ppm; Soleil bean plant, adults; assessed after 6 days.
Type: in vivo
Method: (§1) Test compounds were formulated using a solution containing 10% acetone, 90% water and 300 ppm X-77® Spreader Lo-Foam Formula non-ionic surfactant containing alkylarylpolyoxyethylene, free fatty acids, glycols and isopropanol (Loveland Industries, Inc. Greeley, Colo., USA). The formulated compounds were applied in 1 mL of liquid through a SUJ2 atomizer nozzle with ⅛ JJ custom body (Spraying Systems Co. Wheaton, Ill., USA) positioned 1.27 cm (0.5 inches) above the top of each test unit. Test compounds were sprayed at the rates indicated, and each test was replicated three times.
For evaluating control of potato leafhopper (Empoasca fabae (Harris)) through contact and/or systemic means, the test unit consisted of a small open container with a 5-6-day-old Soleil bean plant (primary leaves emerged) inside. White sand was added to the top of the soil, and one of the primary leaves was excised prior to application of the test compound.
Test compounds were formulated and sprayed at 250 and/or 50 ppm. After spraying of the formulated test compound, the test units were allowed to dry for 1 hour before they were post-infested with 5 potato leafhoppers (18-to-21-day-old adults). A black, screened cap was placed on the top of the test unit, and the test units were held for 6 days in a growth chamber at 20° C. and 70% relative humidity. Each test unit was then visually assessed for insect mortality.
In the case of `CCC(C)c1nn(-c2cc(C(F)(F)F)ccn2)cc1CN1CCC(C(F)(F)F)CC1` (stereo not drawn) [Compound 56], the mortality is reported as “at least 80%”.

Same assay, conditions: sprayed at 250 ppm; Soleil bean plant, adults; assessed after 6 days
With “2-[3-cyclohexyl-4-[[4-(trifluoromethyl)-1-piperidinyl]methyl]-1H-pyrazol-1-yl]-4-(trifluoromethyl)pyridine [Compound 23]” the mortality was “at least 80%”.
In the case of `N#CC1CCN(Cc2cn(-c3ccc(Cl)cc3)nc2C=CCl)CC1` [Compound 9], the mortality is reported as “at least 80%”.
In the case of `CC(=O)NC1CCN(Cc2cn(-c3ccc(Cl)cc3)nc2C=CCl)CC1` [Compound 10], the mortality is reported as “at least 80%”.
With `N#CC1CCN(Cc2cn(-c3ccc(Cl)c(Cl)c3)nc2C2CCC2)CC1` [Compound 27] the mortality was “at least 80%”.
`FC(F)(F)C1CCN(Cc2cn(-c3ccc(Cl)c(Cl)c3)nc2C2CCC2)CC1` [Compound 28] was tested, and the mortality was “at least 80%”.
With `FC(F)(F)c1ccnc(-n2cc(CN3CCC(C(F)(F)F)CC3)c(C3CCC3)n2)c1` [Compound 34] the mortality was “at least 80%”.
In the case of `N#CC1CCN(Cc2cn(-c3cc(C(F)(F)F)ccn3)nc2C2CC2)CC1` [Compound 35], the mortality is reported as “at least 80%”.
For `FC(F)(F)C1CCN(Cc2cn(-c3ccc(Cl)c(Cl)c3)nc2C2CCCC2)CC1` [Compound 41], the mortality was “at least 80%”.
With `N#CC1CCN(Cc2cn(-c3cc(C(F)(F)F)ccn3)nc2C2CCOC2)CC1` (stereo not drawn) [Compound 42] the mortality was “at least 80%”.
`CC(c1ccccc1F)c1nn(-c2cc(C(F)(F)F)ccn2)cc1CN1CCC(C#N)CC1` (stereo not drawn) [Compound 49] was tested, and the mortality was “at least 80%”.
`CC(C)c1nn(-c2cc(C(F)(F)F)ccn2)cc1CN1CCC(C#N)CC1` [Compound 53] was tested, and the mortality was “at least 80%”.
`CCC(C)c1nn(-c2cc(C(F)(F)F)ccn2)cc1CN1CCC(C(F)(F)F)CC1` (stereo not drawn) [Compound 56] was tested, and the mortality was “at least 80%”.
`CC(c1ccccc1F)c1nn(-c2cc(C(F)(F)F)ccn2)cc1CN1CCC(C(F)(F)F)CC1` (stereo not drawn) [Compound 62] was tested, and the mortality was “at least 80%”.

Each molecule was assayed on green peach aphid (Myzus persicae (Sulzer)) (assay: Test E: control of green peach aphid through contact and/or systemic means). Settings: sprayed at 250 ppm; radish plant; assessed after 6 days.
Type: in vivo
Method: as §1
For evaluating control of green peach aphid (Myzus persicae (Sulzer)) through contact and/or systemic means, the test unit consisted of a small open container with a 12-15-day-old radish plant inside. This was pre-infested by placing on a leaf of the test plant 30-40 aphids on a piece of leaf excised from a culture plant (cut-leaf method). The aphids moved onto the test plant as the leaf piece desiccated. After pre-infestation, the soil of the test unit was covered with a layer of sand.
Test compounds were formulated and sprayed at 250 and/or 50 ppm. After spraying of the formulated test compound, each test unit was allowed to dry for 1 hour and then a black, screened cap was placed on top. […] Each test unit was then visually assessed for insect mortality.
In the case of `CCc1nn(-c2ccc(Cl)c(Cl)c2)cc1CN1CCC(C#N)CC1` [Compound 14], the mortality is reported as “at least 80%”.
In the case of `N#CC1CCN(Cc2cn(-c3ccc(F)c(Cl)c3)nc2C(F)F)CC1` [Compound 17], the mortality is reported as “at least 80%”.

These molecules were tested on corn planthopper (Peregrinus maidis (Ashmead)) (assay: Test C: control of corn planthopper through contact and/or systemic means). Settings: sprayed at 250 ppm; corn (maize) plant, nymphs; assessed after 6 days.
Type: in vivo
Method: as §1
For evaluating control of corn planthopper (Peregrinus maidis (Ashmead)) through contact and/or systemic means, the test unit consisted of a small open container with a 3-4-day-old corn (maize) plant inside. White sand was added to the top of the soil prior to application of the test compound.
Test compounds were formulated and sprayed at 250 and/or 50 ppm. After spraying of the formulated test compound, the test units were allowed to dry for 1 h before they were post-infested with ˜15-20 nymphs (18-to-21-day-old). A black, screened cap was placed on the top of each test unit, and the test units were held for 6 days in a growth chamber at 22-24° C. and 50-70% relative humidity. Each test unit was then visually assessed for insect mortality.
`FC(F)(F)c1ccnc(-n2cc(CN3CCC(C(F)(F)F)CC3)c(C3CCC3)n2)c1` [Compound 34] was tested, and the mortality was “at least 80%”.
In the case of `CCC(C)c1nn(-c2cc(C(F)(F)F)ccn2)cc1CN1CCC(C(F)(F)F)CC1` (stereo not drawn) [Compound 56], the mortality is reported as “at least 80%”.
